According to publication PMC5850324, “Interactions between the Hepatitis C Virus Nonstructural 2 Protein and Host Adaptor Proteins 1 and 4 Orchestrate Virus Release” (mBio, 2018):
No constants are given. Whether binding was seen depends on the method and setting. Binding seen in cells or lysates may run through a third protein. For some assays here: Sequences can lack the tags named with a protein.

What was measured:
[1] = biological target: T1, GLuc1-tagged μ subunit of the AP-4 complex (UniProt O00189); assay: split reporter; protein fragment complementation assay (split luciferase): GLuc1-AP μ subunit and GLuc2-HCV protein transfected pairwise into 293T cells; luciferase at 24 h; normalized luminescence ratio (NLR), positive if NLR >25 (>2.2 SD above a random reference set); mutant panels plotted relative to WT; NS2-AP-1B also tested after treatment with compound 7745, 12i, sunitinib or erlotinib
T1 sequence: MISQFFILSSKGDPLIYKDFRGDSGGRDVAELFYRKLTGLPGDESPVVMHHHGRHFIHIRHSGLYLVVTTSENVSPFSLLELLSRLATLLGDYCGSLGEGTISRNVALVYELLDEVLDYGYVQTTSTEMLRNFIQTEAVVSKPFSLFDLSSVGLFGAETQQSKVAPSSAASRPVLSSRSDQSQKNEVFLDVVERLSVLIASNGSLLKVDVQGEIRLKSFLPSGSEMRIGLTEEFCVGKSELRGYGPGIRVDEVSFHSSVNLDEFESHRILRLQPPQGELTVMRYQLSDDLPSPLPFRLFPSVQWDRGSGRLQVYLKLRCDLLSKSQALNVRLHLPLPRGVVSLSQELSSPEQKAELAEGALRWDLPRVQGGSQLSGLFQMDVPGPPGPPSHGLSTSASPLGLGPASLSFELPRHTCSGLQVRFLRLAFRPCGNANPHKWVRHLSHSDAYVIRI

[2] = biological target: T2, GLuc1-tagged μ subunit of the AP-1A complex (UniProt Q9BXS5); assay: as above
T2 sequence: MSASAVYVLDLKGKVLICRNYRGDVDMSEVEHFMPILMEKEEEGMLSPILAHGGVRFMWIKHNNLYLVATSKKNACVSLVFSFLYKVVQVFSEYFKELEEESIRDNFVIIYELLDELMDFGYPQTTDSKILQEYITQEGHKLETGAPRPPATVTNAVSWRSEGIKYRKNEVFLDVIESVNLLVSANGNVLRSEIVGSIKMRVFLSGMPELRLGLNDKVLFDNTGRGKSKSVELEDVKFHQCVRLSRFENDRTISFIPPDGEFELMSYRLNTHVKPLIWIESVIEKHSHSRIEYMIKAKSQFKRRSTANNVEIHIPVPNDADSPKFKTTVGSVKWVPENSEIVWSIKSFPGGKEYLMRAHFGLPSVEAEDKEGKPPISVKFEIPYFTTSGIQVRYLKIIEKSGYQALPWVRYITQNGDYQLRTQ

[3] = biological target: T3, GLuc1-tagged μ subunit of the AP-1B complex (UniProt Q9Y6Q5); assay: as above
T3 sequence: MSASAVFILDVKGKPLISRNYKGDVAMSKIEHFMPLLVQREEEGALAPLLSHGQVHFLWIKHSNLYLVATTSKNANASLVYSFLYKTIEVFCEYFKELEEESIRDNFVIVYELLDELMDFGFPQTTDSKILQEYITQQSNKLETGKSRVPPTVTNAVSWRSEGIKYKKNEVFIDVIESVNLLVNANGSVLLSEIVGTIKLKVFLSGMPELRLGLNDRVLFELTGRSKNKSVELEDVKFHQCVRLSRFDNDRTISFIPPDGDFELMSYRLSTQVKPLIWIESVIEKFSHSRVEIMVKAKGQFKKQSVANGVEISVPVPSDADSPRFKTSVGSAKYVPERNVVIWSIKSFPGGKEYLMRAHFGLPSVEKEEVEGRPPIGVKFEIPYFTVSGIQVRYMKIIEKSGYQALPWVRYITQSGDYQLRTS

[4] = biological target: T4, AP-1A (μ subunit), endogenous in Huh7.5 cells (human (endogenous in Huh7.5)) (UniProt Q9BXS5); assay: co-IP; membrane fractions of Huh7.5 cells transfected with J6/JFH HCV RNA (naive cells as control); cross-linker added; IP with anti-NS2, anti-AP-1A or anti-AP-4 antibodies, IgG controls
T4 sequence: T2 sequence

[5] = biological target: T5, AP-4 (μ subunit), endogenous in Huh7.5 cells (human (endogenous in Huh7.5)) (UniProt O00189); assay: as above
T5 sequence: T1 sequence

For “GLuc2-NS5B (hepatitis C virus nonstructural protein 5B)”, the binding [1] was “no binding”, the binding [2] was “no binding” and the binding [3] was “no binding”.

In the case of “NS5B expressed from J6/JFH HCV RNA (hepatitis C virus (J6/JFH))”, the binding [4] is reported as “no binding” and the binding [5] is reported as “no binding”.
